Laboratory results taken from the supplement of paper PMC10849652.
Some of the results follow. Residues, ends and D or L forms follow the SMILES beside them. *: point of attachment. Cbz = O=C(OCc1ccccc1)*

By UniProt entry, the sequences of proteins in these tests, tags left out. Where a name states a change or a piece, a line headed by the entry shows the natural chain unless it says otherwise.
UniProt Q01081: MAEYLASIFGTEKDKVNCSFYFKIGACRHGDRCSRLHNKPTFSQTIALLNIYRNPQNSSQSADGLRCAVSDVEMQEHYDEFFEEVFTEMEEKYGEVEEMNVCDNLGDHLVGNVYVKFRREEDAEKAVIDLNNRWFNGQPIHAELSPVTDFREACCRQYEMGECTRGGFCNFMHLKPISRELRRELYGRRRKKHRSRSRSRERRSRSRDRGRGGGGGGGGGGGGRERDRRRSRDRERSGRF
UniProt Q9H892: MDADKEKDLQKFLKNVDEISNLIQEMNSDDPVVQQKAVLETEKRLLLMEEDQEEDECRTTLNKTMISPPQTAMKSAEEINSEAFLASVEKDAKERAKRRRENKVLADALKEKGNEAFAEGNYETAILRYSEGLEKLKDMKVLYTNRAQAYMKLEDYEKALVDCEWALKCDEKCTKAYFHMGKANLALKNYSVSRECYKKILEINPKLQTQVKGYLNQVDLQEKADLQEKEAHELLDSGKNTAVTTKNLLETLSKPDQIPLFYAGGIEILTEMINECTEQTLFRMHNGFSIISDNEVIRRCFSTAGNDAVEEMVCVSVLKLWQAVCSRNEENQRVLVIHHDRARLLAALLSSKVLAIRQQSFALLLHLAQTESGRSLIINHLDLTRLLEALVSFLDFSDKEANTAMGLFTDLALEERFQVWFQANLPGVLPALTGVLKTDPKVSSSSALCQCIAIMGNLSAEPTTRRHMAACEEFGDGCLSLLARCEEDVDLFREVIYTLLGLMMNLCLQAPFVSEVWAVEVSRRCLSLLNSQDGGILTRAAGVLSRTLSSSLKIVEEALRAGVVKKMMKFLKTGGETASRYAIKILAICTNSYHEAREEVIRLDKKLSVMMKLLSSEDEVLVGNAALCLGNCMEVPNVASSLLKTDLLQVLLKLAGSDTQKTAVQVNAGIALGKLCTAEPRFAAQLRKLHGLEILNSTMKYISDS
UniProt Q8NBP0: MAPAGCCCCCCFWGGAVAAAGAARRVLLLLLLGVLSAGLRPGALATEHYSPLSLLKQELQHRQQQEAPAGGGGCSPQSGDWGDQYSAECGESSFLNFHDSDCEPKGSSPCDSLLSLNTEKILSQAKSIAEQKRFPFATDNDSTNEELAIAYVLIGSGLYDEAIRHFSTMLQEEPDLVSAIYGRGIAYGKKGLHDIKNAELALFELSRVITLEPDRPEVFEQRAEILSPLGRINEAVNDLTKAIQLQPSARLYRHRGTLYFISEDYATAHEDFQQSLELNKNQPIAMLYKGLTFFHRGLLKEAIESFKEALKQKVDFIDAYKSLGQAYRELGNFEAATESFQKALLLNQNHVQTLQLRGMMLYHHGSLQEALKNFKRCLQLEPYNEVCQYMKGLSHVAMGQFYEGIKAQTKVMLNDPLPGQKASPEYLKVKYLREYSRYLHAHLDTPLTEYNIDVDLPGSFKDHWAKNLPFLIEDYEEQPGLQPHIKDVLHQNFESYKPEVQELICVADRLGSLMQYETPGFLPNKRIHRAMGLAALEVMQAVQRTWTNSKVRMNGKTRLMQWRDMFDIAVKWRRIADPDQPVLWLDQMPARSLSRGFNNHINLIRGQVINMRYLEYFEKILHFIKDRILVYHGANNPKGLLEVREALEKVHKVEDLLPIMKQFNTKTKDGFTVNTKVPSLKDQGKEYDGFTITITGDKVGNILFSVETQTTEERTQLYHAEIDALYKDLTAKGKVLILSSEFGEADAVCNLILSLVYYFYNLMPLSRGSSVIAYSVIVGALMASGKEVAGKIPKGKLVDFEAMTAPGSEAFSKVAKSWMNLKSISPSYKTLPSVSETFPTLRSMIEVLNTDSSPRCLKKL
UniProt O75896: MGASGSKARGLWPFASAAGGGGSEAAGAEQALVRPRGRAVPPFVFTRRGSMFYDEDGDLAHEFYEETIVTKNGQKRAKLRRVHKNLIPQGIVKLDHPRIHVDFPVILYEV
UniProt O95801: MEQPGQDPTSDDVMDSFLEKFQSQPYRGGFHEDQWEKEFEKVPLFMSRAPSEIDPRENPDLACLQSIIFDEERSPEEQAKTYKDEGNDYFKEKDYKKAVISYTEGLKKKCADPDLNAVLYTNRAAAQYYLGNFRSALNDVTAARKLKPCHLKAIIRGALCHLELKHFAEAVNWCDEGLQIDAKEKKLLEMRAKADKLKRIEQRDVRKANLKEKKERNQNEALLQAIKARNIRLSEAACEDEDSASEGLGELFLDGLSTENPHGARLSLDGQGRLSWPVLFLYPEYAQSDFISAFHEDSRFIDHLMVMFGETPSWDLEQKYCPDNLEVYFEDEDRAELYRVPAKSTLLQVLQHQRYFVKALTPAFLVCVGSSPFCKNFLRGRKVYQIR
UniProt Q96AE7: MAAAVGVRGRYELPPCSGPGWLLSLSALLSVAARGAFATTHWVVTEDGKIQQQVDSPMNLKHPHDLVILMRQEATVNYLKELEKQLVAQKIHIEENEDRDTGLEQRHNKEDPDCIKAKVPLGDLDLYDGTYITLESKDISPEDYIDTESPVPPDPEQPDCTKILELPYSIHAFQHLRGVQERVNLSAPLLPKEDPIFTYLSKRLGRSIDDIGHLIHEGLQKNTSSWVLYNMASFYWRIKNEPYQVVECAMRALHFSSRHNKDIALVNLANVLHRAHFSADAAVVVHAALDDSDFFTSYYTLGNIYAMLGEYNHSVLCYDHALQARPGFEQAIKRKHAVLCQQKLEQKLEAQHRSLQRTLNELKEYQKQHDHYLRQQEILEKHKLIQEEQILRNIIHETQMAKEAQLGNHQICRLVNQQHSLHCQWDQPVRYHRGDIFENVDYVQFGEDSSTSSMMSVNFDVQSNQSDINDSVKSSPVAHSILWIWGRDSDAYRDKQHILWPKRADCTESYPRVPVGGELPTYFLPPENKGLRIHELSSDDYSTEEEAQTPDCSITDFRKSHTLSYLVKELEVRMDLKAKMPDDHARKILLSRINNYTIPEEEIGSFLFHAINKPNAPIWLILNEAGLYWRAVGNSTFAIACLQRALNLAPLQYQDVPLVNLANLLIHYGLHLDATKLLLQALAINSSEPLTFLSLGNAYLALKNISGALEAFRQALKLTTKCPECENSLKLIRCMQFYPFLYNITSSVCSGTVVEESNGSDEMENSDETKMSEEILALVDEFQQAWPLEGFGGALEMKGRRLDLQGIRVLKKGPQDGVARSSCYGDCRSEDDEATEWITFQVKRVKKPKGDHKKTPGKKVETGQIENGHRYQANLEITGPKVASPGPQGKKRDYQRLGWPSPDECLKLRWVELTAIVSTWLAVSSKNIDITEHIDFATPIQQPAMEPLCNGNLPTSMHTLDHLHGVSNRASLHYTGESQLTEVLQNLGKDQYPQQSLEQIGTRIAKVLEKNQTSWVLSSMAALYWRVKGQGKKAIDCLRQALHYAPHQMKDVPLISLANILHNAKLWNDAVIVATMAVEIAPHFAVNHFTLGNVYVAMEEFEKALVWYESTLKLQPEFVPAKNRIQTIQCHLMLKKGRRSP
UniProt Q9H0U9: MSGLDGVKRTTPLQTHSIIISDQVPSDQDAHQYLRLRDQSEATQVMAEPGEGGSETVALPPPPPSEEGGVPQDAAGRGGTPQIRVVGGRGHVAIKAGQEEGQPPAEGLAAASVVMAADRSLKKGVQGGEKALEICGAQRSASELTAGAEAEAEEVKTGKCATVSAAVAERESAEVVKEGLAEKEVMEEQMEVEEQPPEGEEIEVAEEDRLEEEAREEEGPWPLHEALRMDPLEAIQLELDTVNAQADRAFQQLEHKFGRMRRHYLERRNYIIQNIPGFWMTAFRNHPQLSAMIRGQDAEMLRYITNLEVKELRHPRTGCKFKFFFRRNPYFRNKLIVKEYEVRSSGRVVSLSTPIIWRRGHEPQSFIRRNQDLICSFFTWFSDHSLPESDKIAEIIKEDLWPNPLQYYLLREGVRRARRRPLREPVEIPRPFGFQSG
UniProt Q86VQ3: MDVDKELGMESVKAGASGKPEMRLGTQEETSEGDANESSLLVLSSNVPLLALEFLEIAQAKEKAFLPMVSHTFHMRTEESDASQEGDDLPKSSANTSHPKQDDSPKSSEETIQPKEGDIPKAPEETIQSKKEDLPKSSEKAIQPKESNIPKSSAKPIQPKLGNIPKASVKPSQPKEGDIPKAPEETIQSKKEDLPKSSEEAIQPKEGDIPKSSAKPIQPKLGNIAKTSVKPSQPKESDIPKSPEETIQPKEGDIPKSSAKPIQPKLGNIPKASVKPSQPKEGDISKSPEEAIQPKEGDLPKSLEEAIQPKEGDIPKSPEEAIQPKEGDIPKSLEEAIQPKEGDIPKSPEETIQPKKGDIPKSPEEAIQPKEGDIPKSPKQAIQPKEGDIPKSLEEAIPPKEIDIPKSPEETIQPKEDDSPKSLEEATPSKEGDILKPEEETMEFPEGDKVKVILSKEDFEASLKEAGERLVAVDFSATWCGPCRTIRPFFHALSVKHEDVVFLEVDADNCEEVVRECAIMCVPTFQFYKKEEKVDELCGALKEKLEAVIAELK
UniProt Q96ET8: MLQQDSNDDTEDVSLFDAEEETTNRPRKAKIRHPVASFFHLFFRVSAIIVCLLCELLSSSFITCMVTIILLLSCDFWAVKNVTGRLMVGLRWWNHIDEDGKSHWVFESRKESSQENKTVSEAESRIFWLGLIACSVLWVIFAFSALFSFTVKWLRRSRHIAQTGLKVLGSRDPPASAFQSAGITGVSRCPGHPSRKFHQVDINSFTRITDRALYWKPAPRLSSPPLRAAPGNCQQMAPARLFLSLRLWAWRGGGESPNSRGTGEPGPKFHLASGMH
UniProt Q8WUA8: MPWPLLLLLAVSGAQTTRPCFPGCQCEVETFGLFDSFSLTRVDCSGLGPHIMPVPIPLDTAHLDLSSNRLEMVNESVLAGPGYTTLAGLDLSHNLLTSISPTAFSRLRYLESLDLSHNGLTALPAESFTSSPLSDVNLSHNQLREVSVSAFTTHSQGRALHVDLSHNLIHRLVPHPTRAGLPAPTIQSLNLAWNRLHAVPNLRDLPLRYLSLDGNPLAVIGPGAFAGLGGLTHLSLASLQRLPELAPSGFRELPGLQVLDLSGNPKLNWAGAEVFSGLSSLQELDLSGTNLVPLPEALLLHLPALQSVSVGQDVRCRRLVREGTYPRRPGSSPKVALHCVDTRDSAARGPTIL
UniProt Q12999: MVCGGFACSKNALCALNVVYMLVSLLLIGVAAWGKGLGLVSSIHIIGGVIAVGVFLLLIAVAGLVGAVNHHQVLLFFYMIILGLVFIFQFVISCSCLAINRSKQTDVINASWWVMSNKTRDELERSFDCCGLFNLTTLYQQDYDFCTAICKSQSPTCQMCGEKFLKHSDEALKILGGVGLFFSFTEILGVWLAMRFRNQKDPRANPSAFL
UniProt Q3B726, whole entry, looked up: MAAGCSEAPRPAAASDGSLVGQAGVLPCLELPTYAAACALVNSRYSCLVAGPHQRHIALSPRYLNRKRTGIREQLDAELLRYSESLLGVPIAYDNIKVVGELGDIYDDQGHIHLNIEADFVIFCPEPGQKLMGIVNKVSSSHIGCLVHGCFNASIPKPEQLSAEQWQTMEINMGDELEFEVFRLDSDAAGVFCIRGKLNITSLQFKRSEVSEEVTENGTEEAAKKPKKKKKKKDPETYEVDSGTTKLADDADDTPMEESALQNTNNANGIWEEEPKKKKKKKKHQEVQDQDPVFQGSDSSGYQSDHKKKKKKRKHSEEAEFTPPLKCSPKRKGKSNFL

Experiments:
Assay in all cases: log2 fold change, soluble protein after heating vs DMSO (PISA); higher = thermal stabilisation; K562 cells, 10 uM, 30 min; active = over 0.2 and 3.5 SD of the protein, either way, in both replicates (recomputed)
IRAK-1-4 Inhibitor I = compound: C1COCCN1CCN2C3=CC=CC=C3N=C2NC(=O)C4=CC(=CC=C4)[N+](=O)[O-] [IRAK-1-4 Inhibitor I]
Method in brief: (§1)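 K562 cells at 2×10^6 cells/mL were given 10 μM compound for 30 min. Aliquots then went through 3 min of heating across 48°C-58°C, were pooled, and were extracted in PBS with 0.5% NP-40 at 4°C, and the supernatant after 21,000xg for 90 min was quantified by TMTpro 16plex LC-MS/MS with channel sums equalised. Thermal stability relative to control samples, from duplicates, is given as log2 fold change.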

ibrutinib = compound: C=CC(=O)N1CCC[C@@H](n2nc(-c3ccc(Oc4ccccc4)cc3)c3c(N)ncnc32)C1 [ibrutinib]
Method in brief: as §1

[1] = compound: CC(=O)c1cnc2ccc(-c3cc(Cl)c(O)c(Cl)c3)nc2c1N[C@H]1CC[C@H](CN(C)C)CC1
Method in brief: as §1

ralimetinib = compound: CC(C)(C)Cn1c(N)nc2ccc(-c3[nH]c(C(C)(C)C)nc3-c3ccc(F)cc3)nc21 [ralimetinib]
Method in brief: as §1

[2] = compound: CC(C)(O)CC(=O)NCCn1ccc2ncnc(Nc3ccc(Oc4cccc(C(F)(F)F)c4)c(Cl)c3)c21
Method in brief: as §1

[3] = compound: CC(C)C1=C2N=C(C=C(N2N=C1)NCC3=CC=CC=C3)NCCCCCCN
Method in brief: as §1

[4] = compound: CC(C)C[C@@H](C=O)NC(=O)[C@H](CC(C)C)NC(=O)[C@H](CC(C)C)NC(=O)OCc1ccccc1
Method in brief: as §1

pinometostat = compound: CC(C)N(C[C@H]1O[C@@H](n2cnc3c(N)ncnc32)[C@H](O)[C@@H]1O)[C@H]1C[C@@H](CCc2nc3cc(C(C)(C)C)ccc3[nH]2)C1 [pinometostat]
Method in brief: as §1

[5] = compound: CC1=C(C2=C(C=C1)C(=O)C3=CC=CC=C3N2CCCN)C
Method in brief: as §1

[6] = compound: CC1=C(C=C(C=C1)NC(=O)C2=CC(=CC=C2)C(C)(C)C#N)NC3=CC4=C(C=C3)N=CN(C4=O)C
Method in brief: as §1

[7] = compound: CC1=C(C=C(C=C1)NC(=O)C2=CC(=CC=C2)N(C)C)NC(=O)C3=CC=C(C=C3)O
Method in brief: as §1

[8] = compound: CC1=CC=C(C=C1)SC2=C3C=C(SC3=CN=C2)C(=O)N
Method in brief: as §1

[9] = compound: CC1=NC(=CC=C1)C2=C(N=C(N2)C(C)(C)C)C3=CC4=NC=CN=C4C=C3
Method in brief: as §1

Nexturastat A = compound: CCCCN(Cc1ccc(C(=O)NO)cc1)C(=O)Nc1ccccc1 [Nexturastat A]
Method in brief: as §1

vemurafenib = compound: CCCS(=O)(=O)Nc1ccc(F)c(C(=O)c2c[nH]c3ncc(-c4ccc(Cl)cc4)cc23)c1F [vemurafenib]
Method in brief: as §1

[10] = compound: CCCS(=O)(=O)Nc1ccc(F)c(C(=O)c2c[nH]c3ncc(Cl)cc23)c1F
Method in brief: as §1

[11] = compound: CCCc1cc(C)[nH]c(=O)c1CNC(=O)c1cc(-c2ccnc(N3CCN(C)CC3)c2)cc2c1cnn2C(C)C
Method in brief: as §1

givinostat = compound: CCN(CC)Cc1ccc2cc(COC(=O)Nc3ccc(C(=O)NO)cc3)ccc2c1 [givinostat]
Method in brief: as §1

barasertib = compound: CCN(CCCOc1ccc2c(Nc3cc(CC(=O)Nc4cccc(F)c4)[nH]n3)ncnc2c1)CCOP(=O)(O)O [barasertib]
Method in brief: as §1

[12] = compound: CC1=C(C(CC(=O)N1)C2=CC=C(C=C2)C(F)(F)F)C(=O)NC3=C(C=C4C(=C3)C=NN4)F
Method in brief: as §1

Measured: log2 fold change

U2AF1 isoform 2 (UniProt Q01081)
active: [1] -0.519
inactive: IRAK-1-4 Inhibitor I -0.133 | ibrutinib 0.073 | ralimetinib 0 | [2] 0.042 | [3] -0.083 | [4] 0.022 | pinometostat -0.04 | [5] 0.169 | [6] -0.011 | [7] -0.078 | [8] -0.01 | [9] 0.091 | Nexturastat A 0.011 | vemurafenib 0.074 | [10] 0.071 | [11] -0.009 | givinostat 0.022 | barasertib 0.009

TTC12 isoform 2 (UniProt Q9H892)
inactive: IRAK-1-4 Inhibitor I -0.188 | ibrutinib -0.099 | ralimetinib -0.224 | [2] 0.107 | [3] 0.061 | [4] 0.038 | pinometostat 0.347 | [12] 0.251 | [5] 0.181 | [6] -0.095 | [7] 0.06 | [9] -0.279 | Nexturastat A 0.311 | [11] -0.171 | givinostat -0.007 | barasertib -0.065

TUBB4A (UniProt M0QYM7)
inactive: IRAK-1-4 Inhibitor I -0.035 | ibrutinib -0.111 | [1] -0.282 | [2] 0.189 | [3] 0.042 | pinometostat 0.073 | [12] -0.048 | [5] 0.018 | [6] -0.095 | [8] -0.188 | [9] -0.097 | Nexturastat A 0 | vemurafenib -0.111 | [10] -0.229 | [11] -0.943 | givinostat 0.179 | barasertib 0.074

TTC13 (UniProt Q8NBP0)
inactive: IRAK-1-4 Inhibitor I -0.018 | [1] 0.155 | ralimetinib -0.006 | [3] -0.001 | [4] 0.04 | pinometostat 0.111 | [5] 0.14 | [6] -0.02 | [7] 0.068 | [9] -0.19 | vemurafenib -0.4 | givinostat 0.054

TUSC2 (UniProt O75896)
inactive: IRAK-1-4 Inhibitor I 0.088 | ibrutinib 0.017 | [2] 0.072 | [3] 0.086 | pinometostat 0.017 | [12] 0.026 | [6] -0.009 | [9] -0.021 | Nexturastat A -0.107 | [11] -0.367 | givinostat 0.034 | barasertib -0.021

TTC4 (UniProt O95801)
inactive: IRAK-1-4 Inhibitor I -0.058 | ibrutinib -0.031 | [1] -0.052 | ralimetinib 0.168 | [2] -0.072 | [3] -0.119 | [4] 0.024 | pinometostat -0.015 | [5] 0 | [6] 0.051 | [7] -0.066 | [8] 0.032 | [9] 0.046 | Nexturastat A 0.052 | vemurafenib 0.059 | [10] 0.106 | [11] 0.013 | givinostat -0.015 | barasertib 0.072

TTC17 isoform 2 (UniProt Q96AE7)
inactive: IRAK-1-4 Inhibitor I -0.004 | [3] 0.071 | pinometostat 0.136 | [8] 0.122 | [9] -0.105 | [10] -0.229 | givinostat 0.035

TSPYL1 (UniProt Q9H0U9)
inactive: [1] 0.041 | [3] 0.073 | [12] -0.1 | [8] -0.193 | [10] 0.081 | givinostat 0.055

TXNDC2 (UniProt Q86VQ3)
inactive: ibrutinib -0.139 | [1] 0.124 | ralimetinib -0.139 | [4] -0.028 | [12] 0.164 | [6] -0.01 | [7] 0.105 | [8] -0.136 | vemurafenib 0.005 | [10] -0.011 | barasertib 0.118

TVP23C (UniProt Q96ET8)
inactive: [1] 0.021 | [3] 0.011 | [5] 0.037 | [8] 0.024 | vemurafenib -0.022 | [10] -0.178 | [11] -0.118 | givinostat 0.043

TSKU (UniProt Q8WUA8)
inactive: [3] -0.084 | [5] -0.2 | [8] -0.071 | vemurafenib 0.141 | [10] 0.015 | givinostat 0.069

TSPAN31 (UniProt Q12999)
inactive: IRAK-1-4 Inhibitor I 0.023 | [1] -0.047 | [2] 0.064 | [3] 0.364 | pinometostat 0.047 | [12] -0.022 | [5] -0.071 | [6] -0.028 | [8] 0.054 | [9] 0.052 | Nexturastat A -0.125 | [10] 0.023 | [11] 0.112 | givinostat -0.165

TWISTNB (UniProt Q3B726)
inactive: ibrutinib 0.128 | [2] 0.098 | [3] -0.05 | [5] 0.246 | [6] -0.306 | [8] -0.204 | Nexturastat A 0.061 | vemurafenib 0.337 | [10] -0.048 | [11] 0.066 | givinostat 0.148 | barasertib -0.057
